These are yes or no findings as the source states them, for the method shown. Some binding calls cover weakened binding; strength is not graded here.

The target of experiment [1] is EYFP-CREB-NLS fusion protein (Aequorea victoria; human) (UniProt P16220). Put plainly: BRET timecourse in CHW-β2 cells transfected with both constructs, BRETCount.
For experiment [2] the target is unchanged. Put plainly: BRET timecourse in CHO-K1 cells transfected with both constructs, BRETCount, ratio 550/470 nm. A general note: In BRET a luciferase serves as donor, and the signal depends on an acceptor being close.

On to “Rluc-CBP-NLS fusion protein (from UniProt Q92793 462-661)”, for which the binding entry in experiment [1] and in experiment [2] was “binds” in each case.
